Measured values reported in the supplement of paper PMC12067093, “Discovery and optimisation of a covalent ligand for TRIM25 and its application to targeted protein ubiquitination” (Chemical Science, 2025).
This is one part of the list.

The chains behind the UniProt entries cited, without tags or fusion partners. Where a name states a change or a piece, a line headed by the entry shows the natural chain unless it says otherwise.
UniProt Q9Y3D2: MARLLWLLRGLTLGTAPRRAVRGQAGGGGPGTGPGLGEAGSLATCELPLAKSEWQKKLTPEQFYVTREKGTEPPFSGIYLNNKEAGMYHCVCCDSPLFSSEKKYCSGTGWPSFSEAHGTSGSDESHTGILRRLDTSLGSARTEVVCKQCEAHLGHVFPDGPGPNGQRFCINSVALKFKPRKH
UniProt Q13615: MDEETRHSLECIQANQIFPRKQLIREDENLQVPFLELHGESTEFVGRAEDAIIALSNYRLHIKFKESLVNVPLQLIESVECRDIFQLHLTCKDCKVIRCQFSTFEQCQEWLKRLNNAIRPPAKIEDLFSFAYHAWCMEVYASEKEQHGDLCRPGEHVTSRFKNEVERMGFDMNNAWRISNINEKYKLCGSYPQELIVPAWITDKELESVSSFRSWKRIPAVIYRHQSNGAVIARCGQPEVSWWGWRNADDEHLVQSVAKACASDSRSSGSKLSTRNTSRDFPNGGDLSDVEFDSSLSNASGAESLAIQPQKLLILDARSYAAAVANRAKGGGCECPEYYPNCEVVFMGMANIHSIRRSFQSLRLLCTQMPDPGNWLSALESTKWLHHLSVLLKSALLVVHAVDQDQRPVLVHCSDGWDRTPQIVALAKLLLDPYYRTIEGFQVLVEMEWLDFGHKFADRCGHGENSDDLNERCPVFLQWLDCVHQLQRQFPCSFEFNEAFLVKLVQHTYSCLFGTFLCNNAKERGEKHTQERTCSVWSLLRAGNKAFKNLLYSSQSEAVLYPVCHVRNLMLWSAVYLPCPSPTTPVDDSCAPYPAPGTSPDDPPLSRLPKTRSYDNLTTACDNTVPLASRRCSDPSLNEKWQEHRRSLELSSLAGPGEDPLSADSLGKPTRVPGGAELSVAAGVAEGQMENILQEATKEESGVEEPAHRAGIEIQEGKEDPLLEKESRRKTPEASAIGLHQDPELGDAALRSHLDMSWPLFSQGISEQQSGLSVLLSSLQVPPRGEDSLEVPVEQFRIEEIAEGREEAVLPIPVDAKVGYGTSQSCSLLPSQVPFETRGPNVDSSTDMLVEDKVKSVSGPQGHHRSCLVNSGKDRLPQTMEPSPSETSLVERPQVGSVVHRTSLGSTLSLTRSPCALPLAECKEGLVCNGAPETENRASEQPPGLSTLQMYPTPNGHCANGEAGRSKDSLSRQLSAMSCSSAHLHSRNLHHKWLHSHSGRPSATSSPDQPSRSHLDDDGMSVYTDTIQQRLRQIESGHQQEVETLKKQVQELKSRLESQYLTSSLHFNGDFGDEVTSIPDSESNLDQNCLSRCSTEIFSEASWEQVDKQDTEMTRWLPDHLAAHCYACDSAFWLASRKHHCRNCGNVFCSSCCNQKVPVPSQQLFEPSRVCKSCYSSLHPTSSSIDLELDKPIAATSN
UniProt P52701: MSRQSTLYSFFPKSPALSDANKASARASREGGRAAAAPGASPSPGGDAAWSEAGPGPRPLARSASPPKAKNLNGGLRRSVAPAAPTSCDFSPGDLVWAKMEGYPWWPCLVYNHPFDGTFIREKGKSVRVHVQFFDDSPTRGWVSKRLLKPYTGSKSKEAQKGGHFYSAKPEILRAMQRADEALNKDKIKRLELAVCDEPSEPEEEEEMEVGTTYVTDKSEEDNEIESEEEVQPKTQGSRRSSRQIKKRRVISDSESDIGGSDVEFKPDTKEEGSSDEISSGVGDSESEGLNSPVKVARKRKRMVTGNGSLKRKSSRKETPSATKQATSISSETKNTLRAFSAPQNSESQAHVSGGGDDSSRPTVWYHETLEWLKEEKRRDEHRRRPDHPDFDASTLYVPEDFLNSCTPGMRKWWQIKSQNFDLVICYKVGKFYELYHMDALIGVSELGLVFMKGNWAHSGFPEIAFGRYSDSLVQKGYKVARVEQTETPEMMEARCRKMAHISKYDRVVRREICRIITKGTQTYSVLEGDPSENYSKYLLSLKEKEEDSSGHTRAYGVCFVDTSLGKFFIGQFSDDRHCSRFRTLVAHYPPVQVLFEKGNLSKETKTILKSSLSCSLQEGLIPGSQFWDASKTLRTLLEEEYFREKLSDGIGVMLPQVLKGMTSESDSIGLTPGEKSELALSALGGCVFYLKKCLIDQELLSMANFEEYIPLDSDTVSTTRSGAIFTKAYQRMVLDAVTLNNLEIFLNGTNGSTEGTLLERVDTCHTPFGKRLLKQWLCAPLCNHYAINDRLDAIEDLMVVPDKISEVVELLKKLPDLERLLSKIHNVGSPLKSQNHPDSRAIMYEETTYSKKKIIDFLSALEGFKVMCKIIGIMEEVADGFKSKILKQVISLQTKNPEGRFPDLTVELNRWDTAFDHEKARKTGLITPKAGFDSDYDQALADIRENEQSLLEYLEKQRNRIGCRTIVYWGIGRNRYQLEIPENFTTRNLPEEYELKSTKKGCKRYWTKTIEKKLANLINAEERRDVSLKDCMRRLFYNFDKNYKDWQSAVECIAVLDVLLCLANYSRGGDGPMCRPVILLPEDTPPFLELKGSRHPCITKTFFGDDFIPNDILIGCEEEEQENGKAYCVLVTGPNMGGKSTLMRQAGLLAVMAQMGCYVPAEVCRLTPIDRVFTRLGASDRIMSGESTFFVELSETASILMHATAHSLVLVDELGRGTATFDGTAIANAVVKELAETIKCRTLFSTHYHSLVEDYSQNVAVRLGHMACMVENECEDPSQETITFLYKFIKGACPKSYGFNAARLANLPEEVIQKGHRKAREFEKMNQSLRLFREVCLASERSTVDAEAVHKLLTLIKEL
UniProt Q9BUK6: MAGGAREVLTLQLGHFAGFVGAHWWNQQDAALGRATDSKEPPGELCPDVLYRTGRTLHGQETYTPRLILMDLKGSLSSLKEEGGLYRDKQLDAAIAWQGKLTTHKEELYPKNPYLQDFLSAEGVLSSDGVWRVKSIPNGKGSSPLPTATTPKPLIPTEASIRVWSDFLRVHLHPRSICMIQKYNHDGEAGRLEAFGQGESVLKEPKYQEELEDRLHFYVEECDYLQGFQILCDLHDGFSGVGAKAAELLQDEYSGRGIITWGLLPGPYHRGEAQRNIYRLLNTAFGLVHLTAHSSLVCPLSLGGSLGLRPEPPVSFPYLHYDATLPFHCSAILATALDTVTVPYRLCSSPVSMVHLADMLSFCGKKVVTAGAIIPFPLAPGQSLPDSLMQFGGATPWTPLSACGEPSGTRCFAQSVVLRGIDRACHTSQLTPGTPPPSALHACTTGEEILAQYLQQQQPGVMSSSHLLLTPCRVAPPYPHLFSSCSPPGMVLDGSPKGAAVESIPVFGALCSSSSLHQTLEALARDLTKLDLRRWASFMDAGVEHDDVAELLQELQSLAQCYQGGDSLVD
UniProt P11586, whole entry, looked up: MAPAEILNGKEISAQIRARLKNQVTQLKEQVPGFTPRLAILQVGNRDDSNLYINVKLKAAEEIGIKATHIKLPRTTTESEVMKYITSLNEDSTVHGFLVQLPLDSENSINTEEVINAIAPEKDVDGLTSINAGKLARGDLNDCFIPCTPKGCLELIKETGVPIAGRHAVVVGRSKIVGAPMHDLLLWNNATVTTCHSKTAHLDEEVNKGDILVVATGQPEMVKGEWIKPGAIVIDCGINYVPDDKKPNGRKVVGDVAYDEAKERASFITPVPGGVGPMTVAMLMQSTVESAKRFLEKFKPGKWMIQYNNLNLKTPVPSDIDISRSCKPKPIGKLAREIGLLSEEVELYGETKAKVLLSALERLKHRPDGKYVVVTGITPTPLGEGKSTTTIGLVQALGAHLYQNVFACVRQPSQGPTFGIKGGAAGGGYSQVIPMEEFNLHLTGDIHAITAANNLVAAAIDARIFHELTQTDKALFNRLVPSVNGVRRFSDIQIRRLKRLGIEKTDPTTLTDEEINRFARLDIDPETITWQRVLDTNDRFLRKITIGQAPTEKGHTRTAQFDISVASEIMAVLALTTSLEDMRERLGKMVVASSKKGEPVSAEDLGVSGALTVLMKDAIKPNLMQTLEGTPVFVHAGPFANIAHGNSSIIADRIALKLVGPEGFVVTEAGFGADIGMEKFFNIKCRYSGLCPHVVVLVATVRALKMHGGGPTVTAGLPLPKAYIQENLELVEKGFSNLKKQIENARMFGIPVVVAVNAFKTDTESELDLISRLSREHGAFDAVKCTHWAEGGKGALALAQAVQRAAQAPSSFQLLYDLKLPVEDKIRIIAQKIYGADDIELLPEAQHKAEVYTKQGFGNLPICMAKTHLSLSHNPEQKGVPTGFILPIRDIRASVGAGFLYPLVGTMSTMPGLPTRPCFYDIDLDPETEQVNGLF
UniProt Q9UJ68: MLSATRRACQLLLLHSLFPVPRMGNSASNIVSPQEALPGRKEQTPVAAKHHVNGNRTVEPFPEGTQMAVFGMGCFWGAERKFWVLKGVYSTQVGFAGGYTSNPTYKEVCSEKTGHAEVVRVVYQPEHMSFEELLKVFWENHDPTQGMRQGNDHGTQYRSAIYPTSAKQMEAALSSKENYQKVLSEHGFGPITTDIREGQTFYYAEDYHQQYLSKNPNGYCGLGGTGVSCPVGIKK
UniProt Q9Y217: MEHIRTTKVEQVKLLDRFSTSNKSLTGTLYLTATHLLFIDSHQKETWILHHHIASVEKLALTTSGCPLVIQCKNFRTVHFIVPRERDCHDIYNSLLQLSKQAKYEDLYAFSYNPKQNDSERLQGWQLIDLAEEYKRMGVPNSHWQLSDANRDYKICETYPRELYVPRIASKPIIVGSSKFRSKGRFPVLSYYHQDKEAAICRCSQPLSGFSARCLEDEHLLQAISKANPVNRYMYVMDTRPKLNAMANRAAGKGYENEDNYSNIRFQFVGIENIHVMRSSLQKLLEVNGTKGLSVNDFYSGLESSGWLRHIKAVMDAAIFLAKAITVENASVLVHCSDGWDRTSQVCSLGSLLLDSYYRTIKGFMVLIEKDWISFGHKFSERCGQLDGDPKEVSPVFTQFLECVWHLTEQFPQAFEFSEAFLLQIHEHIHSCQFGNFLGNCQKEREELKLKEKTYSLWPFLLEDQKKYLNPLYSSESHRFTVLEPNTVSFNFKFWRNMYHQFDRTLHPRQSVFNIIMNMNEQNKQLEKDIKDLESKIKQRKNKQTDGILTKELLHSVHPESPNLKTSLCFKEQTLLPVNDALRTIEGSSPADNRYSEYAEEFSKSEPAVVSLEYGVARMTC
UniProt Q9NVV4: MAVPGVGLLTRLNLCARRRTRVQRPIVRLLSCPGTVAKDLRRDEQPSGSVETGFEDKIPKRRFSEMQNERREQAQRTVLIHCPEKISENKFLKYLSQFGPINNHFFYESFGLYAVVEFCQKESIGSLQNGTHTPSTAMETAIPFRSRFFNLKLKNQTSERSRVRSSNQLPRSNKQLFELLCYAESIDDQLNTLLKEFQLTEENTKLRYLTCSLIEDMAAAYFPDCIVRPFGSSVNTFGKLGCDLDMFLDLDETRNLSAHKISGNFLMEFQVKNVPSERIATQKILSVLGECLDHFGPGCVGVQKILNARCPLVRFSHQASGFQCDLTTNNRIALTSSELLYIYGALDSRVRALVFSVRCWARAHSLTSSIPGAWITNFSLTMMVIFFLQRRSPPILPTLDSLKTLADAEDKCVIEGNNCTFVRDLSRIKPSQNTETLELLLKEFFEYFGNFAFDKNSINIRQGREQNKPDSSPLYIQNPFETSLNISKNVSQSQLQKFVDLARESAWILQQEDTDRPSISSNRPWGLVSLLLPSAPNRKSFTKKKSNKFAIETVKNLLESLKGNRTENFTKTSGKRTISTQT
UniProt P53602: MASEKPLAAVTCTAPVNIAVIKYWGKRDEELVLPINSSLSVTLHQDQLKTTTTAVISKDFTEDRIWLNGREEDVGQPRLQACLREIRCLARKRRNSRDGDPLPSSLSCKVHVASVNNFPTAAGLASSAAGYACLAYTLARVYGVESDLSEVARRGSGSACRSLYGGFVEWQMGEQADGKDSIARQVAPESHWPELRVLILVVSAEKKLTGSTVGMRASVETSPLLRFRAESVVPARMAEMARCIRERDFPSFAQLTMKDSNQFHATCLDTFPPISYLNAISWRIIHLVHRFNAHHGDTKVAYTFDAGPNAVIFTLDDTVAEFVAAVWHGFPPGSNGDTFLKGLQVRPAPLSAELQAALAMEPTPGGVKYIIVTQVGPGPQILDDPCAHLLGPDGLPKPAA
UniProt Q969V5: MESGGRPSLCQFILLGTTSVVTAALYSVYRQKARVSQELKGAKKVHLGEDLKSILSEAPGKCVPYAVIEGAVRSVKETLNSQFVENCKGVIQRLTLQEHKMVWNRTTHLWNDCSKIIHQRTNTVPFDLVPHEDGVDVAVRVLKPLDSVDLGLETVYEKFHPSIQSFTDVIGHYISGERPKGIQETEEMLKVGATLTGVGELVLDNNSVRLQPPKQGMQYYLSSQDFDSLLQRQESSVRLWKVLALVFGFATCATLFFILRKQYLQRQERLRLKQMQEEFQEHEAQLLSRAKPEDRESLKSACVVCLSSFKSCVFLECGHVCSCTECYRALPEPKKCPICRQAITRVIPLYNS

What follows are targets tested with CC1Cc2ccccc2N1C(=O)C1CCCN(C1)C(=O)CCl (mixture of isomers) [TRIM25 ligand 11 (diastereomer mixture)] (assay: probe-labelled cysteine peptide fold change vs DMSO (competition) (log2 fold change); higher = less target engagement (more negative = stronger competition)). Conditions: 10 µM; THP-1; incubation time: 4 h.
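Note: competitive chemoproteomic profiling in live THP-1 cells with an iodoacetamide desthiobiotin (IA-DTB) probe, comparing probe-labelled peptide intensities in compound-treated cells against DMSO-treated controls.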

Target	probe-labelled cysteine peptide fold change
MSRB2_Q9Y3D2_149_QCEAHLGHVFPDGPGPNGQR (UniProt Q9Y3D2)	-0.109
MVP_Q14764_59_HYCTVANPVSR (UniProt Q14764)	0.00813
MTMR3_Q13615_188_LCGSYPQELIVPAWITDK (UniProt Q13615)	0.105
MTCH2_Q9Y6C9_49_QVCQLPGLFSYAQHIASIDGR (UniProt Q9Y6C9)	0.00231
MRPS30_Q9NP92_316_QNCADQIEVVFR (UniProt Q9NP92)	0.0482
MRPS9_P82933_233_LLTSQCGAAEEEFVQR (UniProt P82933)	0.0323
MSH6_P52701_1129_AYCVLVTGPNMGGK (UniProt P52701)	-0.116
MSH6_P52701_687_SELALSALGGCVFYLK (UniProt P52701)	0.169
MYCBP2_O75592_3051_AVFASFLWHEGIVHDAMACSSFLK (UniProt O75592)	0.0319
MSTO1_Q9BUK6_347_LCSSPVSMVHLADMLSFCGK (UniProt Q9BUK6)	0.282
MTHFD1_P11586_236_GEWIKPGAIVIDCGINYVPDDK (UniProt P11586)	0.235
MSRA_Q9UJ68_74_TVEPFPEGTQMAVFGMGCFWGAER (UniProt Q9UJ68)	0.122
MYH11_P35749_95_VEDMAELTCLNEASVLHNLR (UniProt P35749)	0.36
MYCBP2_O75592_1516_ILSEGVDHCMVK (UniProt O75592)	0.0259
MTMR6_Q9Y217_88_DCHDIYNSLLQLSK (UniProt Q9Y217)	-0.0013
MTMR6_Q9Y217_214_CLEDEHLLQAISK (UniProt Q9Y217)	-0.0907
MRPL50_Q8N5N7_52_KEPILVCPPLR (UniProt Q8N5N7)	-0.34
MTPAP_Q9NVV4_412+419_CVIEGNNCTFVR (UniProt Q9NVV4)	-0.138

Target	probe-labelled cysteine peptide fold change
MRPS10_P82664_142_CLELEHLTGSTADVYLEYIQR (UniProt P82664)	0.185
MSH3_P20585_833_AVHHLATVDCIFSLAK (UniProt P20585)	0.0594
MYH9_P35579_1379_MEDSVGCLETAEEVKR (UniProt P35579)	-0.129
MRPL46_Q9H2W6_210_FLGNAPCGHYTFK (UniProt Q9H2W6)	-0.0524
MYH9_P35579_790_ITDVIIGFQACCR (UniProt P35579)	0.00716
MTHFD1L_Q6UB35_778_EYTEENIQLVADGCCNLQK (UniProt Q6UB35)	-0.0331
MYCBP2_O75592_3392_MPCLYLQTLAR (UniProt O75592)	0.0388
MTOR_P42345_1498_CLEALGEWGQLHQQCCEK (UniProt P42345)	-0.0124
MYH10_P35580_176_CMLQDREDQSILCTGESGAGK (UniProt P35580)	0.176
MVD_P53602_267_DSNQFHATCLDTFPPISYLNAISWR (UniProt P53602)	-0.239
MSH6_P52701_1337_EVCLASER (UniProt P52701)	-0.0287
MSH6_P52701_783_QWLCAPLCNHYAINDR (UniProt P52701)	0.107
MUL1_Q969V5_62_CVPYAVIEGAVR (UniProt Q969V5)	0.00708
MSH6_P52701_426_SQNFDLVICYK (UniProt P52701)	0.456
MRPS22_P82650_231_HVDVLNLCFAQFEPDSTEYIK (UniProt P82650)	-0.199
MYB_P10242_78_TDVQCQHR (UniProt P10242)	0.0273
MTERF4_Q7Z6M4_69_SNNYVQEPECR (UniProt Q7Z6M4)	0.00817

Same assay, conditions: 50 µM; THP-1; incubation time: 4 h

Target	probe-labelled cysteine peptide fold change
MSRB2_Q9Y3D2_149_QCEAHLGHVFPDGPGPNGQR (UniProt Q9Y3D2)	-0.0388
MVP_Q14764_59_HYCTVANPVSR (UniProt Q14764)	0.0411
MTMR3_Q13615_188_LCGSYPQELIVPAWITDK (UniProt Q13615)	0.265
MTCH2_Q9Y6C9_49_QVCQLPGLFSYAQHIASIDGR (UniProt Q9Y6C9)	-0.0708
MRPS30_Q9NP92_316_QNCADQIEVVFR (UniProt Q9NP92)	0.324
MRPS9_P82933_233_LLTSQCGAAEEEFVQR (UniProt P82933)	-0.0172
MSH6_P52701_1129_AYCVLVTGPNMGGK (UniProt P52701)	-0.246
MSH6_P52701_687_SELALSALGGCVFYLK (UniProt P52701)	0.0844
MYCBP2_O75592_3051_AVFASFLWHEGIVHDAMACSSFLK (UniProt O75592)	-0.26
MSTO1_Q9BUK6_347_LCSSPVSMVHLADMLSFCGK (UniProt Q9BUK6)	0.111
MTHFD1_P11586_236_GEWIKPGAIVIDCGINYVPDDK (UniProt P11586)	0.104
MSRA_Q9UJ68_74_TVEPFPEGTQMAVFGMGCFWGAER (UniProt Q9UJ68)	0.22
MYH11_P35749_95_VEDMAELTCLNEASVLHNLR (UniProt P35749)	-0.349
MYCBP2_O75592_1516_ILSEGVDHCMVK (UniProt O75592)	-0.0171
MTMR6_Q9Y217_88_DCHDIYNSLLQLSK (UniProt Q9Y217)	-0.0394
MTMR6_Q9Y217_214_CLEDEHLLQAISK (UniProt Q9Y217)	0.0909
MRPL50_Q8N5N7_52_KEPILVCPPLR (UniProt Q8N5N7)	-0.165
MTPAP_Q9NVV4_412+419_CVIEGNNCTFVR (UniProt Q9NVV4)	-0.0777

Target	probe-labelled cysteine peptide fold change
MRPS10_P82664_142_CLELEHLTGSTADVYLEYIQR (UniProt P82664)	0.0322
MSH3_P20585_833_AVHHLATVDCIFSLAK (UniProt P20585)	0.129
MYH9_P35579_1379_MEDSVGCLETAEEVKR (UniProt P35579)	-0.115
MRPL46_Q9H2W6_210_FLGNAPCGHYTFK (UniProt Q9H2W6)	-0.0694
MYH9_P35579_790_ITDVIIGFQACCR (UniProt P35579)	0.0409
MTHFD1L_Q6UB35_778_EYTEENIQLVADGCCNLQK (UniProt Q6UB35)	-0.0422
MYCBP2_O75592_3392_MPCLYLQTLAR (UniProt O75592)	-0.0816
MTOR_P42345_1498_CLEALGEWGQLHQQCCEK (UniProt P42345)	0.00669
MYH10_P35580_176_CMLQDREDQSILCTGESGAGK (UniProt P35580)	0.39
MVD_P53602_267_DSNQFHATCLDTFPPISYLNAISWR (UniProt P53602)	-0.303
MSH6_P52701_1337_EVCLASER (UniProt P52701)	0.098
MSH6_P52701_783_QWLCAPLCNHYAINDR (UniProt P52701)	0.0685
MUL1_Q969V5_62_CVPYAVIEGAVR (UniProt Q969V5)	-0.0529
MSH6_P52701_426_SQNFDLVICYK (UniProt P52701)	0.537
MRPS22_P82650_231_HVDVLNLCFAQFEPDSTEYIK (UniProt P82650)	-0.125
MYB_P10242_78_TDVQCQHR (UniProt P10242)	0.0321
MTERF4_Q7Z6M4_69_SNNYVQEPECR (UniProt Q7Z6M4)	-0.179
